From publication PMC6683005
No constants are given. Whether binding was seen depends on the method and setting. Binding seen in cells or lysates may run through a third protein. A yes stands for co-enrichment or nearness to the bait. Other partners may have been found.

Chains of the proteins cited; added tags and fusions are not shown. Lines headed by an entry give the natural chain unless they say otherwise; changes in a name come on top.
UniProt Q9FX54: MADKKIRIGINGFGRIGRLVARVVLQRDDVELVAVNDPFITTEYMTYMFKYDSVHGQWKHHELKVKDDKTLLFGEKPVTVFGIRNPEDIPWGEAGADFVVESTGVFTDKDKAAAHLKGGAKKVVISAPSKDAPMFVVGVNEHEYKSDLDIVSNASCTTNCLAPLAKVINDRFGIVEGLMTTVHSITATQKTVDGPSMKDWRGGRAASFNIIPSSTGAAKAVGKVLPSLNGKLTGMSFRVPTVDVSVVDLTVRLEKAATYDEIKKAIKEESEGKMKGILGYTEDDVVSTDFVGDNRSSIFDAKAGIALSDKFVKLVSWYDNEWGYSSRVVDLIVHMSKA

Target: YFP-tagged Glyceraldehyde-3-phosphate-dehydrogenase (GAPC) (Arabidopsis thaliana) (UniProt Q9FX54)
Assay: affinity purification with mass spectrometry; YFP-GAPC2 pulled down with GFP-Trap from soluble Arabidopsis leaf proteins; 150 mM NaCl, 20 mM HEPES pH 7.2, 1% NP-40, overnight at 4 °C; three replicates, no antibody control; eluted proteins analysed by LC-MS/MS

Substance | binding
ACTIN 2 (from UniProt Q96292 1-377) | binds
ACTIN 7 (from UniProt P53492 1-377) | binds
